Test results from paper PMC5107993, “Glutathione-conjugating and membrane-remodeling activity of GDAP1 relies on amphipathic C-terminal domain” (Scientific Reports, 2016).
Changes are numbered by the printed parent chain. In names and notes the source's numbering stands. These are yes or no findings as the source states them, for the method shown. Binding seen in cells or lysates may run through a third protein. Some entries that bind do so weakly or less than the wild type. For some assays here: Tags and fused reporters may be left off the sequences shown. Blank lines part the entries; values can stand above or below the binder they belong to.

Experiments:
[1] = molecular target: T1, human ganglioside-induced differentiation associated protein 1 (GDAP1), full-length, untagged (human) (UniProt Q8TB36); test: co-IP; human and mouse forms co-expressed in HEK-293T; IP with human-specific anti-GDAP1 serum on Protein A-Sepharose, 2 h; lysis buffer 50 mM Tris pH 7.5, 150 mM NaCl, 1 mM EDTA, 1% Triton X-100; immunoblot for the mouse form
T1 sequence: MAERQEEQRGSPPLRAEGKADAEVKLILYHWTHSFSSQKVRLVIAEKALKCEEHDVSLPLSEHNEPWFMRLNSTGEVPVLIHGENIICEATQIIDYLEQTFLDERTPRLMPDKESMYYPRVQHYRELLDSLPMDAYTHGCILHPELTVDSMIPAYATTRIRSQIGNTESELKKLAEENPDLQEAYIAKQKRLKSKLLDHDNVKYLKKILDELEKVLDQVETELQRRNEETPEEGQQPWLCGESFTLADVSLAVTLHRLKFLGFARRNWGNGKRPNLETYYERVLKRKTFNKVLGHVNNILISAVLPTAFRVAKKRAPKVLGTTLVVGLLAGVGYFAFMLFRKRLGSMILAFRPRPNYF

[2] = molecular target: T2, human GDAP1 Q218E (dominantly inherited disease mutant, dmGDAP1) (human) (UniProt Q8TB36); test: as above
T2 sequence: T1 sequence with Q218E

[3] = molecular target: T3, human GDAP1 R120W (dominantly inherited disease mutant, dmGDAP1) (human) (UniProt Q8TB36); test: as above
T3 sequence: T1 sequence with R120W

[4] = molecular target: T4, human GDAP1 R310Q (recessively inherited disease mutant, rmGDAP1) (human) (UniProt Q8TB36); test: as above
T4 sequence: T1 sequence with R310Q

[5] = molecular target: T5, human GDAP1 R120Q (recessively inherited disease mutant, rmGDAP1) (human) (UniProt Q8TB36); test: as above
T5 sequence: T1 sequence with R120Q

[6] = molecular target: T6, human GDAP1 T318X (truncation lacking the TMD) (human) (UniProt Q8TB36); test: as above
T6 sequence: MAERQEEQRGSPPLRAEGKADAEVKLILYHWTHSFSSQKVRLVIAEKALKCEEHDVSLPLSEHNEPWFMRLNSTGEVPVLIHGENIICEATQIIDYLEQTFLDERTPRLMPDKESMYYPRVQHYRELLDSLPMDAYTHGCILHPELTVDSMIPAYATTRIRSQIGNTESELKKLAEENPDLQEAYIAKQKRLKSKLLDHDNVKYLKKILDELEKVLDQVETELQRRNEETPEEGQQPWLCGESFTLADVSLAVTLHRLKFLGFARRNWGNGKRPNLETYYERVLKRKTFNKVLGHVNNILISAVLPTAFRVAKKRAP

[7] = molecular target: T7, human GDAP1 T288X (truncation lacking the TMD and HD1) (human) (UniProt Q8TB36); test: as above
T7 sequence: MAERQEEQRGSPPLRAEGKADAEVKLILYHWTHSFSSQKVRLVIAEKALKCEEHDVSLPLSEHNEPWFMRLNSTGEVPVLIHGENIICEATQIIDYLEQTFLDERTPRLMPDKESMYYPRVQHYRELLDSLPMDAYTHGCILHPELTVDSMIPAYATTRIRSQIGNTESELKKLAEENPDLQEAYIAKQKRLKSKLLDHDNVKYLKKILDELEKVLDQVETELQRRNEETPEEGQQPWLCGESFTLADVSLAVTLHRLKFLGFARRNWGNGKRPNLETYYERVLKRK

[8] = molecular target: T8, mouse Gdap1, full-length, untagged (mouse) (UniProt O88741); test: co-IP; human and mouse forms co-expressed in HEK-293T; IP with murine-specific Gdap1 antibody on Protein A-Sepharose; lysis buffer 50 mM Tris pH 7.5, 150 mM NaCl, 1 mM EDTA, 1% Triton X-100; immunoblot for the human form
T8 sequence: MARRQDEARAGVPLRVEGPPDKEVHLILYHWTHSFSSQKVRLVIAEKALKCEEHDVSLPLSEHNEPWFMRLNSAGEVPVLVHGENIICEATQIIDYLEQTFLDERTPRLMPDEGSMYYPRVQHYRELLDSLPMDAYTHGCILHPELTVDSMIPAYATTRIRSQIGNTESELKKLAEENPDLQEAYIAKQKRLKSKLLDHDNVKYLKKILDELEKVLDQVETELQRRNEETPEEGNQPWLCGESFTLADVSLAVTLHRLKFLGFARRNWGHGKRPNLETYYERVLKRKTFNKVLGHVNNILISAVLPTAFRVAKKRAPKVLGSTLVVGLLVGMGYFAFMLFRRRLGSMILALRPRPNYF

B2: mouse Gdap1 Q218E (mouse isoform corresponding to the human disease mutant) (protein, UniProt O88741 1-358)
chain: T8 sequence with Q218E
- binding [2]: binds

B3: mouse Gdap1 R120W (mouse isoform corresponding to the human disease mutant) (protein, UniProt O88741 1-358)
chain: T8 sequence with R120W
- binding [3]: binds

B5: mouse Gdap1 R120Q (mouse isoform corresponding to the human disease mutant) (protein, UniProt O88741 1-358)
chain: T8 sequence with R120Q
- binding [5]: binds

B8: human ganglioside-induced differentiation associated protein 1 (GDAP1), full-length, untagged (protein, UniProt Q8TB36 1-358)
chain: T1 sequence
- binding [8]: binds

Second part, the binder after the results:

- binding [1]: binds
B1: mouse Gdap1, full-length, untagged (protein, UniProt O88741 1-358)
chain: T8 sequence

- binding [4]: binds
B4: mouse Gdap1 R310Q (mouse isoform corresponding to the human disease mutant) (protein, UniProt O88741 1-358)
chain: T8 sequence with R310Q

- binding [6]: binds
B6: mouse Gdap1 T318X (truncation lacking the TMD) (domain or fragment, UniProt O88741 1-317)
chain: MARRQDEARAGVPLRVEGPPDKEVHLILYHWTHSFSSQKVRLVIAEKALKCEEHDVSLPLSEHNEPWFMRLNSAGEVPVLVHGENIICEATQIIDYLEQTFLDERTPRLMPDEGSMYYPRVQHYRELLDSLPMDAYTHGCILHPELTVDSMIPAYATTRIRSQIGNTESELKKLAEENPDLQEAYIAKQKRLKSKLLDHDNVKYLKKILDELEKVLDQVETELQRRNEETPEEGNQPWLCGESFTLADVSLAVTLHRLKFLGFARRNWGHGKRPNLETYYERVLKRKTFNKVLGHVNNILISAVLPTAFRVAKKRAP

- binding [7]: binds
B7: mouse Gdap1 T288X (truncation lacking the TMD and HD1) (domain or fragment, UniProt O88741 1-287)
chain: MARRQDEARAGVPLRVEGPPDKEVHLILYHWTHSFSSQKVRLVIAEKALKCEEHDVSLPLSEHNEPWFMRLNSAGEVPVLVHGENIICEATQIIDYLEQTFLDERTPRLMPDEGSMYYPRVQHYRELLDSLPMDAYTHGCILHPELTVDSMIPAYATTRIRSQIGNTESELKKLAEENPDLQEAYIAKQKRLKSKLLDHDNVKYLKKILDELEKVLDQVETELQRRNEETPEEGNQPWLCGESFTLADVSLAVTLHRLKFLGFARRNWGHGKRPNLETYYERVLKRK
